Results are given in words; binding and its absence hold for the method and conditions named. In cells and extracts the contact can be indirect. Some binding calls cover weakened binding; strength is not graded here.
Experiments:
[1] = target: HA-tagged full-length p300 acetyltransferase (UniProt Q09472); assay: co-IP; E1A + Ras cells transfected with CMV-p300-HA, treated with NaBut for 24 h; extracts immunoprecipitated with anti-HA antibody, immunoblot with FoxO1 antibody
[2] = target: HA-tagged full-length p300 acetyltransferase (UniProt Q09472); assay: condition: only untreated control cells (without NaBut), in which E1A is expressed; co-IP; E1A + Ras cells transfected with CMV-p300-HA, untreated control cells (no NaBut); extracts immunoprecipitated with anti-HA antibody, immunoblot with FoxO1 antibody

Amino acid sequences for entries named in this document (tags omitted).
UniProt Q09472: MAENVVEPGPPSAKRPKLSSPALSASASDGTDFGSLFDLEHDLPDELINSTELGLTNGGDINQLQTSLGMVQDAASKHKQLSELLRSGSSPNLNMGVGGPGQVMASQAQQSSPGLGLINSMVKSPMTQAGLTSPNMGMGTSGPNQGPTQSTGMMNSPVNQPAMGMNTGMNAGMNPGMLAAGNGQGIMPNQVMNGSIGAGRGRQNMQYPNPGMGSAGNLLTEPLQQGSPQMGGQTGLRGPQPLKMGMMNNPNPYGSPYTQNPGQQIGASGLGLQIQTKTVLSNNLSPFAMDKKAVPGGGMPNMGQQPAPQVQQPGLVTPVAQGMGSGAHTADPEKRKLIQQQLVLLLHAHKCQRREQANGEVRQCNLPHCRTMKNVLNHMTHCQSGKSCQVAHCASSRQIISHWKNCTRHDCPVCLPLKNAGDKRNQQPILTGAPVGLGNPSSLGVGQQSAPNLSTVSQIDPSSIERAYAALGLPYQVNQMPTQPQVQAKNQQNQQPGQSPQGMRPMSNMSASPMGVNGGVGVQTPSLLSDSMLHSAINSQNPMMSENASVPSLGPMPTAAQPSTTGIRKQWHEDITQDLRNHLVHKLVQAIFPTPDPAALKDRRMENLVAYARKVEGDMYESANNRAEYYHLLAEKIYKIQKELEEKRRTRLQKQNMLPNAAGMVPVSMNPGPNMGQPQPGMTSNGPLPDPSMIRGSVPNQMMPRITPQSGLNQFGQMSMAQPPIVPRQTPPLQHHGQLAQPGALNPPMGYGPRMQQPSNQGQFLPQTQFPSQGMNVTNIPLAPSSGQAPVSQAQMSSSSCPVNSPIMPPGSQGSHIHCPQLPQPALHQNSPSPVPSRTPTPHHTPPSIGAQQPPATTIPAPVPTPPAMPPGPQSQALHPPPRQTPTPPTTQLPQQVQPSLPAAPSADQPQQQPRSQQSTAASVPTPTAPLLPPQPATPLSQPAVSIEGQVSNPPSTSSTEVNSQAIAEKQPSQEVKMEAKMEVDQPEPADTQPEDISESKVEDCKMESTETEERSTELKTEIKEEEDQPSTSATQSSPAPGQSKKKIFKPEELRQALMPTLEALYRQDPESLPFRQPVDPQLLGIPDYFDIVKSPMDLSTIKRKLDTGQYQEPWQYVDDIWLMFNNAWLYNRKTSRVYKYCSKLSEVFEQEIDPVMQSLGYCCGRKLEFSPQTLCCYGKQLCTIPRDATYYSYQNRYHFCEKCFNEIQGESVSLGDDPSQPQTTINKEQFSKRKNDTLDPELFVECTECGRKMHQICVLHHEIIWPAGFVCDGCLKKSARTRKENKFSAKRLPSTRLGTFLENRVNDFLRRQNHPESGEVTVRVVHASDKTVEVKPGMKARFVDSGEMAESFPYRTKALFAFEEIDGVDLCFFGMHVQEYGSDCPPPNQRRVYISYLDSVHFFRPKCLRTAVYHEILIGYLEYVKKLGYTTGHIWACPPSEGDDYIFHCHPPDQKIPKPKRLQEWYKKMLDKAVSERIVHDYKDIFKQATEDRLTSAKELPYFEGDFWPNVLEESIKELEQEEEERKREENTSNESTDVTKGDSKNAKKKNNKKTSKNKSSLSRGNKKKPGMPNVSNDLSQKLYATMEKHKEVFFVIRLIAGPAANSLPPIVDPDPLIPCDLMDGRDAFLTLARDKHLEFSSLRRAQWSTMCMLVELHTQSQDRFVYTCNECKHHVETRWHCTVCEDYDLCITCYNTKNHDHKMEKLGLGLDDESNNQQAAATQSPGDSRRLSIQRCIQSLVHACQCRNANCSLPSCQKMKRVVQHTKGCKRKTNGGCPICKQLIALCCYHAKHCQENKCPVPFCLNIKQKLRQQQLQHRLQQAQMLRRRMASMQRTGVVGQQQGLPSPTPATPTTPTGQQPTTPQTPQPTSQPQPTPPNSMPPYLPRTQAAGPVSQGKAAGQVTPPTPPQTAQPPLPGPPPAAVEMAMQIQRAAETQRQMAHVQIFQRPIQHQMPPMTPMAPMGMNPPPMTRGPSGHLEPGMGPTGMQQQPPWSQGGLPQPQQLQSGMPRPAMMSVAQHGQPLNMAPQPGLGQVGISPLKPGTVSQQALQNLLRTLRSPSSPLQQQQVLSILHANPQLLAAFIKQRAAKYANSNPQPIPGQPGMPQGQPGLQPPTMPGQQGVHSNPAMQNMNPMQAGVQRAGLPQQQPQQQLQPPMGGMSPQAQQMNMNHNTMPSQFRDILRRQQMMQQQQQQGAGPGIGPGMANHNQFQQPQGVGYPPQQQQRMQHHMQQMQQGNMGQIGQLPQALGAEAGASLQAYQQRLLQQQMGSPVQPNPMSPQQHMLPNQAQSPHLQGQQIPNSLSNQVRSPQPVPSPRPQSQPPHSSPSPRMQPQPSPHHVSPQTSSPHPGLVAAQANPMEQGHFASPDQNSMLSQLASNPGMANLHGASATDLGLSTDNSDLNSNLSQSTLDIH
UniProt Q9R1E0: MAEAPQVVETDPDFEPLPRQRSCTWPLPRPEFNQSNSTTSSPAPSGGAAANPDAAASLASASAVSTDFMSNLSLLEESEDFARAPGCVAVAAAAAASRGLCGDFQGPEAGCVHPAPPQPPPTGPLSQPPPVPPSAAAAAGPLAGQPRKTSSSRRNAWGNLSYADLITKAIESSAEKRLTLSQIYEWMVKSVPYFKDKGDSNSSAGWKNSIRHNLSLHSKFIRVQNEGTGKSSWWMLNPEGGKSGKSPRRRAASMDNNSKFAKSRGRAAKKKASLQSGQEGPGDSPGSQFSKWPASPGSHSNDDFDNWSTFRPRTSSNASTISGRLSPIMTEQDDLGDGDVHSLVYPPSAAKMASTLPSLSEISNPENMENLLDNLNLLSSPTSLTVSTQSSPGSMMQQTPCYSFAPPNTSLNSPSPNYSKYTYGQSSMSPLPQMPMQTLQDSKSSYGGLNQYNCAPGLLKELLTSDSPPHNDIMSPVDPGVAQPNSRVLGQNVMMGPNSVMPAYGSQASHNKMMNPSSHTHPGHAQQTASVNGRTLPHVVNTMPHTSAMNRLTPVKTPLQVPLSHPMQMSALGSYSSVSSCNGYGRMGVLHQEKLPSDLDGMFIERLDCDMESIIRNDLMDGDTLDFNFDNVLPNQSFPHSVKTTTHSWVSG

endogenous FoxO1 (from UniProt Q9R1E0 1-652)
binding [1]: binds
binding [2]: no binding
